Test results published in patent US6846659B2, “Isolation and bacterial expression of a sesquiterpene synthase cDNA clone from peppermint (Mentha x piperita, L.) that produces the aphid alarm pheromone (E)-β-farnesene” (Washington State University Research Foundation, priority 1997, dated 2005).

Chains of the proteins cited; added tags and fusions are not shown. Lines headed by an entry give the natural chain unless they say otherwise; changes in a name come on top.
UniProt O48935, whole entry: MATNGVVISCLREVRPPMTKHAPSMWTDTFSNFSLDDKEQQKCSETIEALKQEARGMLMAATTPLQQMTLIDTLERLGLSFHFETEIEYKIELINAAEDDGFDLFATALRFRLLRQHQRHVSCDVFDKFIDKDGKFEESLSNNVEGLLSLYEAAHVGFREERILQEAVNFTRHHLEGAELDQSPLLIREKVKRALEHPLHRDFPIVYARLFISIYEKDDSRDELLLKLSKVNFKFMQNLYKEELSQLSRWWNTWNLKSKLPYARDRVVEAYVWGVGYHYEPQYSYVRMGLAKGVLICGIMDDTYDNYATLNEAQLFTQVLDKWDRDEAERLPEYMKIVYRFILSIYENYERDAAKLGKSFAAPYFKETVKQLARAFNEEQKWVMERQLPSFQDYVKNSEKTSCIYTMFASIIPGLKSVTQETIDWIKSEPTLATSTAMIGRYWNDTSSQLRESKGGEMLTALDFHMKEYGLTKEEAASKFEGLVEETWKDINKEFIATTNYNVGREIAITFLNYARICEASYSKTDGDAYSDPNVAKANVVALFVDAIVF

Target: recombinant (E)-β-farnesene synthase (SEQ ID NO:2) (Mentha piperita, UniProt O48935)
Assay: Kinetic characterization of recombinant, partially purified (E)-β-farnesene synthase (sesquiterpene/monoterpene/diterpene synthase assay)
Format: biochemical, peppermint (Mentha piperita)
Settings: conversion to monoterpene olefins versus FDP to sesquiterpene olefins, at saturation; tested as the radiolabelled form

With `CC(C)=CCC/C(C)=C/COP(=O)(O)OP(=O)(O)O` [GDP, geranyl diphosphate] the “relative velocity at saturating levels, of the velocity with FDP” value was “less than 3% and 3%”.

A number of entries come with more than one value. The list is limited to them. There may be further records. Values given together differ, and nothing given here explains why; dose, time, organism, isomer or construct need not be as stated for each record.
